Results published in article PMC5746549.
No constants are given. Whether binding was seen depends on the method and setting. For some assays here: In cells and extracts the contact can be indirect. For some assays here: A result given as binding can be weak or reduced; the word gives no strength. For some assays here: Tags and fused reporters may be left off the sequences shown.

Protein sequences, listed by entry. Tags and fused reporters are not part of them. Lines headed by an entry give the natural chain unless they say otherwise; changes in a name come on top.
UniProt P10288: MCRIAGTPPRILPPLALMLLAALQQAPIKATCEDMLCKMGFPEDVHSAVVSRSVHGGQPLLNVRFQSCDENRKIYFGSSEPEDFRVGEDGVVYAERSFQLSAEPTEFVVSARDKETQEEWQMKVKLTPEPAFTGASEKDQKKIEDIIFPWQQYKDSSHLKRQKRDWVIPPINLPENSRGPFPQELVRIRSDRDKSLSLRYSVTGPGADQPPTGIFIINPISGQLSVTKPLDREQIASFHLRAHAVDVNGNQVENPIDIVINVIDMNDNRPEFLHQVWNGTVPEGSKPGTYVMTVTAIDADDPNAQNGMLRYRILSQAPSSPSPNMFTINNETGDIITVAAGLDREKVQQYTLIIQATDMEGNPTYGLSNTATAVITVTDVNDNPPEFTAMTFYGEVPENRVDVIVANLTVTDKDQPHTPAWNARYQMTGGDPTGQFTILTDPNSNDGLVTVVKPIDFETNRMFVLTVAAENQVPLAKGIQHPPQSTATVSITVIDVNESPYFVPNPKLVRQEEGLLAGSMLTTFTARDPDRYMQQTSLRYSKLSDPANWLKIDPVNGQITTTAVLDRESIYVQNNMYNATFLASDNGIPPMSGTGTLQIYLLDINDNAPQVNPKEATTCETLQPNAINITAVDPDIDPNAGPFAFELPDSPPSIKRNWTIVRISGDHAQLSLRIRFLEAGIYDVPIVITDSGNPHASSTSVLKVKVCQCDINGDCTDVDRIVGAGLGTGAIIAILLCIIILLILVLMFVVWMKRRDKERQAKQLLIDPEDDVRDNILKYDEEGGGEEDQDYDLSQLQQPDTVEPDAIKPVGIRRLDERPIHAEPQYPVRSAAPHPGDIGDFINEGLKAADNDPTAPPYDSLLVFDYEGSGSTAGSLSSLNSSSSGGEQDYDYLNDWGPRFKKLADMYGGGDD
UniProt Q62226: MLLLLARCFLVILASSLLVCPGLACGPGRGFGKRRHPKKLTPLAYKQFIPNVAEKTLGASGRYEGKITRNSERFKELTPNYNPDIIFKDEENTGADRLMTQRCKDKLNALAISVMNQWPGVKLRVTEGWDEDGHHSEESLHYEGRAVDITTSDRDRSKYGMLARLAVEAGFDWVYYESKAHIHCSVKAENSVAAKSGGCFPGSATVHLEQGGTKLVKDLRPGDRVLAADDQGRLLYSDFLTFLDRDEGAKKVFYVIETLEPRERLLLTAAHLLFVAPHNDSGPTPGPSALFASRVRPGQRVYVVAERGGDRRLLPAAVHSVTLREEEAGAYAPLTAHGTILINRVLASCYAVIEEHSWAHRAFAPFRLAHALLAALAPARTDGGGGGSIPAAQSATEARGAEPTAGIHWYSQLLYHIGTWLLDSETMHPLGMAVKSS
UniProt Q9IA31: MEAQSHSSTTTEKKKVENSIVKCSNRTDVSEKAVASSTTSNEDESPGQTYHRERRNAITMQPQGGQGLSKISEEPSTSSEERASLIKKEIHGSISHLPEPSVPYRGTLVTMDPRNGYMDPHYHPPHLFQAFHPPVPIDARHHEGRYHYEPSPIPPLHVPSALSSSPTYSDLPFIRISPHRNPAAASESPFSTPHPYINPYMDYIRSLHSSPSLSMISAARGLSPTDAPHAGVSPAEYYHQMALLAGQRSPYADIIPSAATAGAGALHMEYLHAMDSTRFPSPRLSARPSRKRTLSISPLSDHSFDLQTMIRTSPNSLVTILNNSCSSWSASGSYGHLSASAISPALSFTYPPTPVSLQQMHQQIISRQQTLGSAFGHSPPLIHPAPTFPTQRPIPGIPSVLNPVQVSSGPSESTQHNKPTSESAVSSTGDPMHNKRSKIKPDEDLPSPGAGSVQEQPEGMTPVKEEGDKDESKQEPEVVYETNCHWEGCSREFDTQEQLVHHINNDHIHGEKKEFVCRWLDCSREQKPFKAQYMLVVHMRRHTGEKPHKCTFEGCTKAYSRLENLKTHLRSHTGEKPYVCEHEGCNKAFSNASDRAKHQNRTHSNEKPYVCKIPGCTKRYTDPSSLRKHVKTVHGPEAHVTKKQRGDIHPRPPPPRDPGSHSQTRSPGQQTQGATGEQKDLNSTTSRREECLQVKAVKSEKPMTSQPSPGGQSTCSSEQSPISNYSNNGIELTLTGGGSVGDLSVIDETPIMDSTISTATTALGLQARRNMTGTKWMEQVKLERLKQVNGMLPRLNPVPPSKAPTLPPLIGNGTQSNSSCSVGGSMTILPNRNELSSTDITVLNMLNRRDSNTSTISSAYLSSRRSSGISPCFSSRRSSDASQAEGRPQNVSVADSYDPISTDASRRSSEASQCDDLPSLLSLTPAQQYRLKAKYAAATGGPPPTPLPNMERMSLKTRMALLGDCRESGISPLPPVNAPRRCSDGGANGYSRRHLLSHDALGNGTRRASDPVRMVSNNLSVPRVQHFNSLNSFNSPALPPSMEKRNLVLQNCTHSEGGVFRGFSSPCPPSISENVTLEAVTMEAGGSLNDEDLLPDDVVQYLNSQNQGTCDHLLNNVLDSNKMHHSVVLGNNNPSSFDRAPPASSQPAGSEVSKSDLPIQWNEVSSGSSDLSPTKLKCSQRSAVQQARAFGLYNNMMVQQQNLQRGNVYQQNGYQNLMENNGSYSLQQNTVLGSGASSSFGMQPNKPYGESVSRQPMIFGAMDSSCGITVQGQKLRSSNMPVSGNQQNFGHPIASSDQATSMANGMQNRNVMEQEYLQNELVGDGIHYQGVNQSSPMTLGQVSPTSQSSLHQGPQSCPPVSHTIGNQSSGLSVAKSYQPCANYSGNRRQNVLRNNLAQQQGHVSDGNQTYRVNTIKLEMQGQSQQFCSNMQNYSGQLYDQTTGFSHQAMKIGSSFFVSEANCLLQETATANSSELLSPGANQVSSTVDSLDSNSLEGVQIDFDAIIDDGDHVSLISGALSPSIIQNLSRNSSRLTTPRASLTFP

Experiments:
[1] = molecular target: T1, Myc-tagged chick Cdh20 (cadherin-20), transiently expressed in NIH3T3 cells (chick) (UniProt Q8QGH3); assay: co-IP; lysates of NIH3T3 cells transiently expressing chick Cdh7, Ncdh or Myc-tagged Cdh20 incubated with rN-Shh; immunoprecipitation with anti-Cdh7, anti-Ncdh or anti-Myc mAb; blot with anti-Shh pAb; only the binder purified
T1 sequence: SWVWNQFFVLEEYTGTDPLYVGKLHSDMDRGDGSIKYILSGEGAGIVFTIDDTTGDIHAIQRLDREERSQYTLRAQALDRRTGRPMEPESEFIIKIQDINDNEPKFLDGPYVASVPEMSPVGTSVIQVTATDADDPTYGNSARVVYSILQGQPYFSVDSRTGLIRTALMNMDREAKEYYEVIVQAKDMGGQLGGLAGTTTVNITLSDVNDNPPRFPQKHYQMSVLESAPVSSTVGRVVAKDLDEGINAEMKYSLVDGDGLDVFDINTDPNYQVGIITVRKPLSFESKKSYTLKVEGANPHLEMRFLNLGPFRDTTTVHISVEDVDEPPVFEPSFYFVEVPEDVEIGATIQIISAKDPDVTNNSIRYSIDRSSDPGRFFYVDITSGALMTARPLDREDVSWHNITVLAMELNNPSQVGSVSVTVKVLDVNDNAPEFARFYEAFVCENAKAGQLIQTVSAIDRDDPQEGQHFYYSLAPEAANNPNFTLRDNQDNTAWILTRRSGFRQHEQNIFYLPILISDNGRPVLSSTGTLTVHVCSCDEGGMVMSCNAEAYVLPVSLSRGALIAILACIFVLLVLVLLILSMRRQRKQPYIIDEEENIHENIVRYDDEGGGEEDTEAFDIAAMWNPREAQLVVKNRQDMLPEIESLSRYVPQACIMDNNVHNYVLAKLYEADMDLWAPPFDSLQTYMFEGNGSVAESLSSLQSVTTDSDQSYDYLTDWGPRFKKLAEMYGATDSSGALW

[2] = molecular target: T2, chick Cdh7 (cadherin-7), transiently expressed in NIH3T3 cells (chick) (UniProt Q90763); assay: as above
T2 sequence: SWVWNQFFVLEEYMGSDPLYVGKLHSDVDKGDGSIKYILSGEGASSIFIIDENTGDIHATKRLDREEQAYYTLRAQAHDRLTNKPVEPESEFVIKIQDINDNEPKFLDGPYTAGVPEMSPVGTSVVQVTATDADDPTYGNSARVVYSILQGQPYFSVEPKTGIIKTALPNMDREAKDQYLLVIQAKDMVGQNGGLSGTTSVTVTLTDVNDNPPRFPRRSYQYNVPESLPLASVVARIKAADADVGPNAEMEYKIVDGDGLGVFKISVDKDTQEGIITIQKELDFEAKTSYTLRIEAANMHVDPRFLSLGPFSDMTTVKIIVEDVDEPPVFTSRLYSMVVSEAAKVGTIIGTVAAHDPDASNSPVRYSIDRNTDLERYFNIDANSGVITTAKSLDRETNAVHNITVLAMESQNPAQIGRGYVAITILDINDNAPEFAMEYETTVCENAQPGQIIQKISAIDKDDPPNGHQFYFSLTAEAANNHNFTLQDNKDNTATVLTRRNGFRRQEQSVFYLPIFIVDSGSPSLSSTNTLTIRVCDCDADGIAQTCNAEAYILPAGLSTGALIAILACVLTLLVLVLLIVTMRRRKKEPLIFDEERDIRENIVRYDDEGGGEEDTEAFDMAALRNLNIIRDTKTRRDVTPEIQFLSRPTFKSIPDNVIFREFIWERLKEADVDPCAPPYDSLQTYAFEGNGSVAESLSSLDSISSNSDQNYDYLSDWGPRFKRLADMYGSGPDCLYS

[3] = molecular target: Ncdh tested for binding of AP-tagged N-Shh (chick) (UniProt P10288); assay: binding of AP-tagged ligand to cells (AP staining, saturation binding, Scatchard analysis); COS-7 cells expressing Cdh7 treated with conditioned medium from 293 cells expressing N-Shh-AP
[4] = molecular target: T3, endogenous Cdh7 of chick embryonic spinal cord (chick (endogenous in HH st. 17 chick embryo)) (UniProt Q90763); assay: co-IP; endogenous proteins in HH st. 17 chick embryo spinal cord lysates; immunoprecipitation with anti-Shh, anti-Cdh7 or anti-Ncdh mAbs
T3 sequence: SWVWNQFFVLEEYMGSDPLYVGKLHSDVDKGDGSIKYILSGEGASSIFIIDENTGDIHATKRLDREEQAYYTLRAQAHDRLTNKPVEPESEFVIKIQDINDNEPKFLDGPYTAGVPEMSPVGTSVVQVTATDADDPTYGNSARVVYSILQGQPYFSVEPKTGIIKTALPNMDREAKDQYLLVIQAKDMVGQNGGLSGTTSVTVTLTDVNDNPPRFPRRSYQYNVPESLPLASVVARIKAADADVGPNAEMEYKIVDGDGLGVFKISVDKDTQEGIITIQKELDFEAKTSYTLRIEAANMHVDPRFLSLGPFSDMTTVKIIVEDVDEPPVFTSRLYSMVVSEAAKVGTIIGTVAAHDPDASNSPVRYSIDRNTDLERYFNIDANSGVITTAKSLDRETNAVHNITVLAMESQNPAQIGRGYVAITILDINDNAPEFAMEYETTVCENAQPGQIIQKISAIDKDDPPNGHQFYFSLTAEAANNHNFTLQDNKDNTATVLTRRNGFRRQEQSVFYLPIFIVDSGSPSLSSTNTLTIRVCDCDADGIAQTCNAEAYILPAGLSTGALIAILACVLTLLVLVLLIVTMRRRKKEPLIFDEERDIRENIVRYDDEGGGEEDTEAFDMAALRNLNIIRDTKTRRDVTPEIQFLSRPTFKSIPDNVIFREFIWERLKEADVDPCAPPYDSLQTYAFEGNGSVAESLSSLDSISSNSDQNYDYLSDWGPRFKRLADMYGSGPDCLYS

[5] = molecular target: endogenous Ncdh of chick embryonic spinal cord (chick (endogenous in HH st. 17 chick embryo)) (UniProt P10288); assay: as above
[6] = molecular target: recombinant N-Shh; assay: co-IP; lysates of NIH3T3 cells transiently expressing chick Cdh7 incubated with rN-Shh; immunoprecipitation with anti-Shh mAb; blot with anti-Cdh7 mAb; only the target purified
[7] = molecular target: endogenous N-Shh of chick embryonic spinal cord (chick (endogenous in HH st. 17 chick embryo)); assay: co-IP; endogenous proteins in HH st. 17 chick embryo spinal cord lysates; immunoprecipitation with anti-Shh, anti-Cdh7 or anti-Ncdh mAbs
[8] = molecular target: recombinant N-Shh; assay: co-IP; lysates of COS-7 cells transiently expressing Myc-tagged Cdh7 constructs incubated with rN-Shh; pull-down with anti-Shh mAb; blot with anti-Myc pAb; only the target purified

recombinant N-Shh (ligand)
binding [1]: no binding | binding [2]: binds

N-Shh tagged with alkaline phosphatase (from UniProt Q62226) (ligand)
binding [3]: no binding

endogenous N-Shh of chick embryonic spinal cord (ligand)
binding [4]: binds

endogenous Gli3FL of chick embryonic spinal cord (from UniProt Q9IA31 1-1544)
binding [5]: no binding

B1: chick Cdh7 (cadherin-7), transiently expressed in NIH3T3 cells (receptor, UniProt Q90763 48-785)
chain: SWVWNQFFVLEEYMGSDPLYVGKLHSDVDKGDGSIKYILSGEGASSIFIIDENTGDIHATKRLDREEQAYYTLRAQAHDRLTNKPVEPESEFVIKIQDINDNEPKFLDGPYTAGVPEMSPVGTSVVQVTATDADDPTYGNSARVVYSILQGQPYFSVEPKTGIIKTALPNMDREAKDQYLLVIQAKDMVGQNGGLSGTTSVTVTLTDVNDNPPRFPRRSYQYNVPESLPLASVVARIKAADADVGPNAEMEYKIVDGDGLGVFKISVDKDTQEGIITIQKELDFEAKTSYTLRIEAANMHVDPRFLSLGPFSDMTTVKIIVEDVDEPPVFTSRLYSMVVSEAAKVGTIIGTVAAHDPDASNSPVRYSIDRNTDLERYFNIDANSGVITTAKSLDRETNAVHNITVLAMESQNPAQIGRGYVAITILDINDNAPEFAMEYETTVCENAQPGQIIQKISAIDKDDPPNGHQFYFSLTAEAANNHNFTLQDNKDNTATVLTRRNGFRRQEQSVFYLPIFIVDSGSPSLSSTNTLTIRVCDCDADGIAQTCNAEAYILPAGLSTGALIAILACVLTLLVLVLLIVTMRRRKKEPLIFDEERDIRENIVRYDDEGGGEEDTEAFDMAALRNLNIIRDTKTRRDVTPEIQFLSRPTFKSIPDNVIFREFIWERLKEADVDPCAPPYDSLQTYAFEGNGSVAESLSSLDSISSNSDQNYDYLSDWGPRFKRLADMYGSGPDCLYS
binding [6]: binds

B2: endogenous Cdh7 of chick embryonic spinal cord (receptor, UniProt Q90763 48-785)
chain: SWVWNQFFVLEEYMGSDPLYVGKLHSDVDKGDGSIKYILSGEGASSIFIIDENTGDIHATKRLDREEQAYYTLRAQAHDRLTNKPVEPESEFVIKIQDINDNEPKFLDGPYTAGVPEMSPVGTSVVQVTATDADDPTYGNSARVVYSILQGQPYFSVEPKTGIIKTALPNMDREAKDQYLLVIQAKDMVGQNGGLSGTTSVTVTLTDVNDNPPRFPRRSYQYNVPESLPLASVVARIKAADADVGPNAEMEYKIVDGDGLGVFKISVDKDTQEGIITIQKELDFEAKTSYTLRIEAANMHVDPRFLSLGPFSDMTTVKIIVEDVDEPPVFTSRLYSMVVSEAAKVGTIIGTVAAHDPDASNSPVRYSIDRNTDLERYFNIDANSGVITTAKSLDRETNAVHNITVLAMESQNPAQIGRGYVAITILDINDNAPEFAMEYETTVCENAQPGQIIQKISAIDKDDPPNGHQFYFSLTAEAANNHNFTLQDNKDNTATVLTRRNGFRRQEQSVFYLPIFIVDSGSPSLSSTNTLTIRVCDCDADGIAQTCNAEAYILPAGLSTGALIAILACVLTLLVLVLLIVTMRRRKKEPLIFDEERDIRENIVRYDDEGGGEEDTEAFDMAALRNLNIIRDTKTRRDVTPEIQFLSRPTFKSIPDNVIFREFIWERLKEADVDPCAPPYDSLQTYAFEGNGSVAESLSSLDSISSNSDQNYDYLSDWGPRFKRLADMYGSGPDCLYS
binding [7]: binds

B3: Myc-tagged Cdh7 full-length, transiently expressed in COS-7 cells (receptor, UniProt Q90763 48-785)
chain: SWVWNQFFVLEEYMGSDPLYVGKLHSDVDKGDGSIKYILSGEGASSIFIIDENTGDIHATKRLDREEQAYYTLRAQAHDRLTNKPVEPESEFVIKIQDINDNEPKFLDGPYTAGVPEMSPVGTSVVQVTATDADDPTYGNSARVVYSILQGQPYFSVEPKTGIIKTALPNMDREAKDQYLLVIQAKDMVGQNGGLSGTTSVTVTLTDVNDNPPRFPRRSYQYNVPESLPLASVVARIKAADADVGPNAEMEYKIVDGDGLGVFKISVDKDTQEGIITIQKELDFEAKTSYTLRIEAANMHVDPRFLSLGPFSDMTTVKIIVEDVDEPPVFTSRLYSMVVSEAAKVGTIIGTVAAHDPDASNSPVRYSIDRNTDLERYFNIDANSGVITTAKSLDRETNAVHNITVLAMESQNPAQIGRGYVAITILDINDNAPEFAMEYETTVCENAQPGQIIQKISAIDKDDPPNGHQFYFSLTAEAANNHNFTLQDNKDNTATVLTRRNGFRRQEQSVFYLPIFIVDSGSPSLSSTNTLTIRVCDCDADGIAQTCNAEAYILPAGLSTGALIAILACVLTLLVLVLLIVTMRRRKKEPLIFDEERDIRENIVRYDDEGGGEEDTEAFDMAALRNLNIIRDTKTRRDVTPEIQFLSRPTFKSIPDNVIFREFIWERLKEADVDPCAPPYDSLQTYAFEGNGSVAESLSSLDSISSNSDQNYDYLSDWGPRFKRLADMYGSGPDCLYS
binding [8]: binds
